Test results: article PMC5412288
Results are given in words; binding and its absence hold for the method and conditions named. In cells and extracts the contact can be indirect. Some results given as binding are weak or reduced against the parent protein; the word gives no strength. Sequences can lack the tags named with a protein.

T1: Chs3 (chitin synthase 3) from Saccharomyces cerevisiae, full length, fused at its C-terminus to a half of Venus for BiFC (S. cerevisiae) (UniProt P29465)
T1 sequence: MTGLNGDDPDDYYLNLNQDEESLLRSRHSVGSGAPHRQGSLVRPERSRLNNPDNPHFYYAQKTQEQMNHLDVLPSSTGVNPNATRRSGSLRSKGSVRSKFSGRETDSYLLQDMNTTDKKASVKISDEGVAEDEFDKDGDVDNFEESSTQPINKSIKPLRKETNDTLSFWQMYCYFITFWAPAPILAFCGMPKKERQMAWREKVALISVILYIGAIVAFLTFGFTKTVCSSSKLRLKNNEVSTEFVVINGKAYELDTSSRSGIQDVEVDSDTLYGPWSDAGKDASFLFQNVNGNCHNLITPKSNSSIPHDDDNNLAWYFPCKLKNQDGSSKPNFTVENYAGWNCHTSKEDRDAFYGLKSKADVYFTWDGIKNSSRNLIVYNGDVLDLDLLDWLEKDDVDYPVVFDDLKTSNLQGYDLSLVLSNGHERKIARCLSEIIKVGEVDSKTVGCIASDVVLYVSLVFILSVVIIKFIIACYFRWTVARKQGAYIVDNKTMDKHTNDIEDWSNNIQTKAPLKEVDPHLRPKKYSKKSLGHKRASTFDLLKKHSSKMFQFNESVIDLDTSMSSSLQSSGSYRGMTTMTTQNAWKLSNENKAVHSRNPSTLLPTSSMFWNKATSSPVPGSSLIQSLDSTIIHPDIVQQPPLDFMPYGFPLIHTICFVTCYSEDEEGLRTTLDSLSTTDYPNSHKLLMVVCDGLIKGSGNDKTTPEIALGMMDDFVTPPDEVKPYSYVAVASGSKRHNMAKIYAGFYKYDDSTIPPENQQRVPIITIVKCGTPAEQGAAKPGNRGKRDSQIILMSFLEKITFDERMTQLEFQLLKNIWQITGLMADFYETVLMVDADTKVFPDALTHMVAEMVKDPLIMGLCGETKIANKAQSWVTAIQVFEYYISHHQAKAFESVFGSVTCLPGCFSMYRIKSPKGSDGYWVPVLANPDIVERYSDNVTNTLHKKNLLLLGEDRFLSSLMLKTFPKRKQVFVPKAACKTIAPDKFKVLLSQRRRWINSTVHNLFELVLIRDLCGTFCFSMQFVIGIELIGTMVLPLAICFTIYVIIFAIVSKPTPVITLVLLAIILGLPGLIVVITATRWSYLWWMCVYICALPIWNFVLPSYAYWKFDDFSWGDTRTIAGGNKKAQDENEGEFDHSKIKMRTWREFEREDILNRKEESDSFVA


Biological target: T1, Chs3 (chitin synthase 3) from Saccharomyces cerevisiae, full length, fused at its C-terminus to a half of Venus for BiFC (S. cerevisiae)
Experiment: split reporter; BiFC with the halves of Venus in living S. cerevisiae cells; Chs3^VN genomically tagged, Chs3^VC versions from pRS415 under the MET25 promoter; cells synchronised with alpha-factor, fluorescence microscopy; wildtype background and chs4, chs5, chs6, chs7, pfa4, bni4 deletion strains

Binder | binding
Chs3 (chitin synthase 3) from Saccharomyces cerevisiae, full length, fused at its C-terminus to a half of Venus for BiFC (enzyme, UniProt P29465 1-1165) MTGLNGDDPDDYYLNLNQDEESLLRSRHSVGSGAPHRQGSLVRPERSRLNNPDNPHFYYAQKTQEQMNHLDVLPSSTGVNPNATRRSGSLRSKGSVRSKFSGRETDSYLLQDMNTTDKKASVKISDEGVAEDEFDKDGDVDNFEESSTQPINKSIKPLRKETNDTLSFWQMYCYFITFWAPAPILAFCGMPKKERQMAWREKVALISVILYIGAIVAFLTFGFTKTVCSSSKLRLKNNEVSTEFVVINGKAYELDTSSRSGIQDVEVDSDTLYGPWSDAGKDASFLFQNVNGNCHNLITPKSNSSIPHDDDNNLAWYFPCKLKNQDGSSKPNFTVENYAGWNCHTSKEDRDAFYGLKSKADVYFTWDGIKNSSRNLIVYNGDVLDLDLLDWLEKDDVDYPVVFDDLKTSNLQGYDLSLVLSNGHERKIARCLSEIIKVGEVDSKTVGCIASDVVLYVSLVFILSVVIIKFIIACYFRWTVARKQGAYIVDNKTMDKHTNDIEDWSNNIQTKAPLKEVDPHLRPKKYSKKSLGHKRASTFDLLKKHSSKMFQFNESVIDLDTSMSSSLQSSGSYRGMTTMTTQNAWKLSNENKAVHSRNPSTLLPTSSMFWNKATSSPVPGSSLIQSLDSTIIHPDIVQQPPLDFMPYGFPLIHTICFVTCYSEDEEGLRTTLDSLSTTDYPNSHKLLMVVCDGLIKGSGNDKTTPEIALGMMDDFVTPPDEVKPYSYVAVASGSKRHNMAKIYAGFYKYDDSTIPPENQQRVPIITIVKCGTPAEQGAAKPGNRGKRDSQIILMSFLEKITFDERMTQLEFQLLKNIWQITGLMADFYETVLMVDADTKVFPDALTHMVAEMVKDPLIMGLCGETKIANKAQSWVTAIQVFEYYISHHQAKAFESVFGSVTCLPGCFSMYRIKSPKGSDGYWVPVLANPDIVERYSDNVTNTLHKKNLLLLGEDRFLSSLMLKTFPKRKQVFVPKAACKTIAPDKFKVLLSQRRRWINSTVHNLFELVLIRDLCGTFCFSMQFVIGIELIGTMVLPLAICFTIYVIIFAIVSKPTPVITLVLLAIILGLPGLIVVITATRWSYLWWMCVYICALPIWNFVLPSYAYWKFDDFSWGDTRTIAGGNKKAQDENEGEFDHSKIKMRTWREFEREDILNRKEESDSFVA | binds
Chs3^(1-855 VC), C-terminally truncated Chs3 fused to the C-terminal half of Venus (domain or fragment, UniProt P29465 1-855) MTGLNGDDPDDYYLNLNQDEESLLRSRHSVGSGAPHRQGSLVRPERSRLNNPDNPHFYYAQKTQEQMNHLDVLPSSTGVNPNATRRSGSLRSKGSVRSKFSGRETDSYLLQDMNTTDKKASVKISDEGVAEDEFDKDGDVDNFEESSTQPINKSIKPLRKETNDTLSFWQMYCYFITFWAPAPILAFCGMPKKERQMAWREKVALISVILYIGAIVAFLTFGFTKTVCSSSKLRLKNNEVSTEFVVINGKAYELDTSSRSGIQDVEVDSDTLYGPWSDAGKDASFLFQNVNGNCHNLITPKSNSSIPHDDDNNLAWYFPCKLKNQDGSSKPNFTVENYAGWNCHTSKEDRDAFYGLKSKADVYFTWDGIKNSSRNLIVYNGDVLDLDLLDWLEKDDVDYPVVFDDLKTSNLQGYDLSLVLSNGHERKIARCLSEIIKVGEVDSKTVGCIASDVVLYVSLVFILSVVIIKFIIACYFRWTVARKQGAYIVDNKTMDKHTNDIEDWSNNIQTKAPLKEVDPHLRPKKYSKKSLGHKRASTFDLLKKHSSKMFQFNESVIDLDTSMSSSLQSSGSYRGMTTMTTQNAWKLSNENKAVHSRNPSTLLPTSSMFWNKATSSPVPGSSLIQSLDSTIIHPDIVQQPPLDFMPYGFPLIHTICFVTCYSEDEEGLRTTLDSLSTTDYPNSHKLLMVVCDGLIKGSGNDKTTPEIALGMMDDFVTPPDEVKPYSYVAVASGSKRHNMAKIYAGFYKYDDSTIPPENQQRVPIITIVKCGTPAEQGAAKPGNRGKRDSQIILMSFLEKITFDERMTQLEFQLLKNIWQITGLMADFYETVLMVDADTKVFPDALTHMVAEMVKD | binds
Chs3^(210-855 VC), N- and C-terminally truncated Chs3 fused to the C-terminal half of Venus (domain or fragment, UniProt P29465 210-855) LYIGAIVAFLTFGFTKTVCSSSKLRLKNNEVSTEFVVINGKAYELDTSSRSGIQDVEVDSDTLYGPWSDAGKDASFLFQNVNGNCHNLITPKSNSSIPHDDDNNLAWYFPCKLKNQDGSSKPNFTVENYAGWNCHTSKEDRDAFYGLKSKADVYFTWDGIKNSSRNLIVYNGDVLDLDLLDWLEKDDVDYPVVFDDLKTSNLQGYDLSLVLSNGHERKIARCLSEIIKVGEVDSKTVGCIASDVVLYVSLVFILSVVIIKFIIACYFRWTVARKQGAYIVDNKTMDKHTNDIEDWSNNIQTKAPLKEVDPHLRPKKYSKKSLGHKRASTFDLLKKHSSKMFQFNESVIDLDTSMSSSLQSSGSYRGMTTMTTQNAWKLSNENKAVHSRNPSTLLPTSSMFWNKATSSPVPGSSLIQSLDSTIIHPDIVQQPPLDFMPYGFPLIHTICFVTCYSEDEEGLRTTLDSLSTTDYPNSHKLLMVVCDGLIKGSGNDKTTPEIALGMMDDFVTPPDEVKPYSYVAVASGSKRHNMAKIYAGFYKYDDSTIPPENQQRVPIITIVKCGTPAEQGAAKPGNRGKRDSQIILMSFLEKITFDERMTQLEFQLLKNIWQITGLMADFYETVLMVDADTKVFPDALTHMVAEMVKD | binds
Chs3^(210-1165 VC), Chs3 lacking only the N-terminus, fused to the C-terminal half of Venus (domain or fragment, UniProt P29465 210-1165) LYIGAIVAFLTFGFTKTVCSSSKLRLKNNEVSTEFVVINGKAYELDTSSRSGIQDVEVDSDTLYGPWSDAGKDASFLFQNVNGNCHNLITPKSNSSIPHDDDNNLAWYFPCKLKNQDGSSKPNFTVENYAGWNCHTSKEDRDAFYGLKSKADVYFTWDGIKNSSRNLIVYNGDVLDLDLLDWLEKDDVDYPVVFDDLKTSNLQGYDLSLVLSNGHERKIARCLSEIIKVGEVDSKTVGCIASDVVLYVSLVFILSVVIIKFIIACYFRWTVARKQGAYIVDNKTMDKHTNDIEDWSNNIQTKAPLKEVDPHLRPKKYSKKSLGHKRASTFDLLKKHSSKMFQFNESVIDLDTSMSSSLQSSGSYRGMTTMTTQNAWKLSNENKAVHSRNPSTLLPTSSMFWNKATSSPVPGSSLIQSLDSTIIHPDIVQQPPLDFMPYGFPLIHTICFVTCYSEDEEGLRTTLDSLSTTDYPNSHKLLMVVCDGLIKGSGNDKTTPEIALGMMDDFVTPPDEVKPYSYVAVASGSKRHNMAKIYAGFYKYDDSTIPPENQQRVPIITIVKCGTPAEQGAAKPGNRGKRDSQIILMSFLEKITFDERMTQLEFQLLKNIWQITGLMADFYETVLMVDADTKVFPDALTHMVAEMVKDPLIMGLCGETKIANKAQSWVTAIQVFEYYISHHQAKAFESVFGSVTCLPGCFSMYRIKSPKGSDGYWVPVLANPDIVERYSDNVTNTLHKKNLLLLGEDRFLSSLMLKTFPKRKQVFVPKAACKTIAPDKFKVLLSQRRRWINSTVHNLFELVLIRDLCGTFCFSMQFVIGIELIGTMVLPLAICFTIYVIIFAIVSKPTPVITLVLLAIILGLPGLIVVITATRWSYLWWMCVYICALPIWNFVLPSYAYWKFDDFSWGDTRTIAGGNKKAQDENEGEFDHSKIKMRTWREFEREDILNRKEESDSFVA | binds
